Measurements taken from patent US20200199244A1.
No constants are given. Whether binding was seen depends on the method and setting. Values belong to the binder of their own block, whether it stands above or below them.

What was measured:
[1] = biological target: chimpanzee CD40 on CD20+ B cells in blood (chimpanzee); experiment: flow cytometry on whole blood, anti-PEG detection, gate on CD20+ B cells
[2] = biological target: chimpanzee CD40 on CD20+ B cells in blood (chimpanzee); experiment: flow cytometry on whole blood, PE-streptavidin detection, gate on CD20+ B cells

binding [1]: no binding
B1: BMS3h-56-5C-40L (protein)
VH: EVQLLESGGGLVQPGGSLRLSCAASGFTFRDYEMWWVRQAPGKGLERVSAINPQGTRTYYADSVMGRFTISRDNSKNTLYLQMNSLRAEDTAVYYCAKLPFTFDDWGQGTLVTVSS
modifications: PEGylated; attachment residue not stated

binding [2]: no binding
B2: BMS3h38-2-biotin (protein)
VH: EVQLLASGGGLVQPGGSLRLSCAASGFTFEEEEMIWVRQAPGKGLEWVSAISGSGGSTYYADSVKGRFTISRDNSKNTLYLQMNSLRAEDTAVYYCGKEPFRYDYWGQGTLVTVSS
modifications: biotin-conjugated; site not stated

binding [1]: no binding
B3: BMS3h38-2C-P40Br (protein)
VH: B2 VH
modifications: PEGylated; attachment residue not stated
